Values from PubChem BioAssay AID1671195 (Yale University, 2021)
Shown is an unselected part of about 22,000 reagents. About 1,510 of them (6.9%) were called active. 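Active includes knockdowns raising or lowering LDL uptake; positive z-scores mean more uptake, negative mean less.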 No sequences are given here.

Aim: 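Genes whose knockdown alters LDL uptake in liver cancer cells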 (primary screen)
Cell system: human Huh7 hepatoma cells
Reagent: siRNA pool against human genes, 18 nM
Time to read-out: about 2 to 2.5 days of knockdown, then 8 h LDL uptake
Treatment: DiI-labelled LDL at 30 µg/ml for 8 h, in lipoprotein-deficient serum medium
Read-out: 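Fluorescent LDL signal imaged in cells, scaled to the plate median, robust z-score for each replicate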
Reading the numbers: robust z-score: higher = more LDL uptake after knockdown
Call rule: 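a gene counts as active if at least two replicate z-scores exceed ±2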

target | robust z-score, replicate 1 | robust z-score, replicate 2 | robust z-score, replicate 3 | activity call
TEP1 (telomerase associated protein 1) | 0.209 | 0.0556 | -0.116 | inactive
PSMB6 (proteasome 20S subunit beta 6) | -1.02 | -0.497 | -0.908 | inactive
OGFOD1 | -0.422 | 0.947 | -0.979 | inactive
LOC391047 (retired record) | -1.49 | -1.26 | -1.66 | inactive
FAAP20 (FA core complex associated protein 20) | -1.38 | -1.34 | -1.54 | inactive
NCKAP1L (NCK associated protein 1 like) | 2.58 | 2.06 | 2.29 | active
GNRHR (gonadotropin releasing hormone receptor) | -1.64 | -1.1 | -1.77 | inactive
DBR1 (debranching RNA lariats 1) | 0.415 | 0.358 | 0.964 | inactive
CP (ceruloplasmin) | 0.744 | 0.641 | 0.587 | inactive
FEM1A (fem-1 homolog A) | 0.121 | -0.195 | -0.873 | inactive
GOT1L1 (glutamic-oxaloacetic transaminase 1 like 1) | 0.47 | -0.906 | -0.0993 | inactive
CCDC144NL-AS1 (CCDC144NL antisense RNA 1) | -0.976 | -0.897 | -1.11 | inactive
JSRP1 (junctional sarcoplasmic reticulum protein 1) | -0.111 | -0.627 | -0.677 | inactive
LOC388814 (retired record) | -2.01 | -2.19 | -2.17 | active
ANXA2R-AS1 (ANXA2R antisense RNA 1) | 2.18 | 0.193 | 1.97 | inactive
SNCG (synuclein gamma) | -0.465 | 0.491 | -0.276 | inactive
ADI1 (acireductone dioxygenase 1) | 1.53 | 0.959 | 0.671 | inactive
VN1R4 (vomeronasal 1 receptor 4) | -0.275 | -0.433 | -0.287 | inactive
PPIP5K2 (diphosphoinositol pentakisphosphate kinase 2) | 1.74 | 1.57 | 2.67 | inactive
ANTXR1 (ANTXR cell adhesion molecule 1) | 0.223 | -0.41 | 0.27 | inactive
ABHD16B (abhydrolase domain containing 16B) | -0.0869 | 0.308 | -0.503 | inactive
APRT (adenine phosphoribosyltransferase) | -0.165 | -0.477 | -0.712 | inactive
LRRC37A6P (leucine rich repeat containing 37 member A6, pseudogene) | 0.845 | 1.1 | 1.13 | inactive
OR52E4 (olfactory receptor family 52 subfamily E member 4) | 0.649 | 0.73 | 0.677 | inactive
TTC9B (tetratricopeptide repeat domain 9B) | -1.57 | -0.643 | -1.09 | inactive
LRRC23 (leucine rich repeat containing 23) | 0.908 | -0.979 | 0.0731 | inactive
LOC400164 (retired record) | 1.63 | 1.85 | 1.24 | inactive
SIGLECL1 (SIGLEC family like 1) | 0.0423 | -0.00166 | 0.139 | inactive
ELF3 (E74 like ETS transcription factor 3) | -0.831 | 0.0328 | -0.0882 | inactive
CCDC191 (coiled-coil domain containing 191) | 0.521 | -0.529 | 2.76 | inactive
HS6ST1 (heparan sulfate 6-O-sulfotransferase 1) | 0.586 | -0.105 | 0.212 | inactive
AHDC1 (AT-hook DNA binding motif containing 1) | -0.46 | -2.22 | -0.0767 | inactive
PPEF1 (protein phosphatase with EF-hand domain 1) | 0.0794 | 1.56 | -0.741 | inactive
XYLT1 (xylosyltransferase 1) | 2.21 | 2.35 | 2.06 | active
EGR2 (early growth response 2) | 0.485 | 1.26 | 0.321 | inactive
PRAMEF17 (PRAME family member 17) | 0.403 | 0.45 | 0.24 | inactive
FAM193B (family with sequence similarity 193 member B) | 0.71 | 0.118 | 0.163 | inactive
FLJ13224 | -1.94 | -2.35 | -2.29 | active
CCDC91 (coiled-coil domain containing 91) | 0.683 | 0.132 | 0.54 | inactive
GNA11 (G protein subunit alpha 11) | 0.217 | 0.194 | 0.114 | inactive
OR52N1 (olfactory receptor family 52 subfamily N member 1) | 0.754 | -0.0391 | 0.29 | inactive
PHYHIP (phytanoyl-CoA 2-hydroxylase interacting protein) | -0.891 | -1.11 | 0.568 | inactive
RSPH4A (radial spoke head component 4A) | -1.18 | -0.481 | -0.989 | inactive
SMCO4 (single-pass membrane protein with coiled-coil domains 4) | 1.09 | 0.338 | 1.59 | inactive
NUCB1 (nucleobindin 1) | -0.339 | 0.18 | -1.25 | inactive
OR52A5 (olfactory receptor family 52 subfamily A member 5) | -0.964 | -0.187 | -0.434 | inactive
S100A2 (S100 calcium binding protein A2) | -1.89 | -1.83 | -1.9 | inactive
DCAKD (dephospho-CoA kinase domain containing) | -1.12 | -1.4 | -1.2 | inactive
FOXA1 (forkhead box A1) | 0.222 | 0.228 | 0.22 | inactive
CCDC140 (CCDC140 long non-coding RNA) | 0.0242 | -0.279 | 0.101 | inactive
C2orf68 (chromosome 2 open reading frame 68) | 1.17 | 1.34 | 1.96 | inactive
NEIL2 (nei like DNA glycosylase 2) | -0.294 | -0.143 | -0.214 | inactive
ANKRD12 (ankyrin repeat domain 12) | -0.346 | -0.744 | -0.248 | inactive

Laid out differently: results already given.
LOC400164 (retired record)
- robust z-score, replicate 1: 1.63
- robust z-score, replicate 2: 1.85
- robust z-score, replicate 3: 1.24
- activity call: inactive

SIGLECL1 (SIGLEC family like 1)
- robust z-score, replicate 1: 0.0423
- robust z-score, replicate 2: -0.00166
- robust z-score, replicate 3: 0.139
- activity call: inactive

ELF3 (E74 like ETS transcription factor 3)
- robust z-score, replicate 1: -0.831
- robust z-score, replicate 2: 0.0328
- robust z-score, replicate 3: -0.0882
- activity call: inactive

CCDC191 (coiled-coil domain containing 191)
- robust z-score, replicate 1: 0.521
- robust z-score, replicate 2: -0.529
- robust z-score, replicate 3: 2.76
- activity call: inactive

HS6ST1 (heparan sulfate 6-O-sulfotransferase 1)
- robust z-score, replicate 1: 0.586
- robust z-score, replicate 2: -0.105
- robust z-score, replicate 3: 0.212
- activity call: inactive

AHDC1 (AT-hook DNA binding motif containing 1)
- robust z-score, replicate 1: -0.46
- robust z-score, replicate 2: -2.22
- robust z-score, replicate 3: -0.0767
- activity call: inactive

PPEF1 (protein phosphatase with EF-hand domain 1)
- robust z-score, replicate 1: 0.0794
- robust z-score, replicate 2: 1.56
- robust z-score, replicate 3: -0.741
- activity call: inactive

XYLT1 (xylosyltransferase 1)
- robust z-score, replicate 1: 2.21
- robust z-score, replicate 2: 2.35
- robust z-score, replicate 3: 2.06
- activity call: active

EGR2 (early growth response 2)
- robust z-score, replicate 1: 0.485
- robust z-score, replicate 2: 1.26
- robust z-score, replicate 3: 0.321
- activity call: inactive

PRAMEF17 (PRAME family member 17)
- robust z-score, replicate 1: 0.403
- robust z-score, replicate 2: 0.45
- robust z-score, replicate 3: 0.24
- activity call: inactive

The listing continues:
target | robust z-score, replicate 1 | robust z-score, replicate 2 | robust z-score, replicate 3 | activity call
C8orf33 (chromosome 8 open reading frame 33) | 0.155 | 0.559 | 0.629 | inactive
TRIM39 (tripartite motif containing 39) | 0.276 | 0.148 | 0.734 | inactive
LINC01341 (long independently transcribed non-coding RNA 1341) | -0.785 | -0.764 | -0.285 | inactive
SLC5A4 | 0.0858 | 0.437 | 0.439 | inactive
LRWD1 (leucine rich repeats and WD repeat domain containing 1) | 0.551 | 0.385 | 1.01 | inactive
KRT18P42 (keratin 18 pseudogene 42) | -0.818 | -0.927 | -0.527 | inactive
HOXC5 (homeobox C5) | 0.631 | 0.573 | 1.16 | inactive
MGC70870 (C-terminal binding protein 2 pseudogene) | -1.18 | -1.37 | -2.18 | inactive
DRAM2 (DNA damage regulated autophagy modulator 2) | 1.64 | 2.21 | 1.59 | inactive
ACSBG2 (acyl-CoA synthetase bubblegum family member 2) | 1.73 | 0.0165 | -0.478 | inactive
LMNB1 (lamin B1) | 1.24 | 0.747 | -0.0426 | inactive
RTN4R (reticulon 4 receptor) | 1.2 | -0.104 | -0.285 | inactive
ADAM32 (ADAM metallopeptidase domain 32) | -0.668 | -0.911 | -0.545 | inactive
HRH3 (histamine receptor H3) | -1 | -1.56 | -1.34 | inactive
GATA5 (GATA binding protein 5) | -0.133 | -0.0947 | -0.165 | inactive
DCAF15 (DDB1 and CUL4 associated factor 15) | -0.041 | 0.62 | 0.315 | inactive
VHLL (VHL like) | 0.217 | -1.03 | 0.363 | inactive
LEFTY2 (left-right determination factor 2) | -0.707 | -0.826 | 0.0361 | inactive
C17orf75 (chromosome 17 open reading frame 75) | 1.29 | 1.87 | 1.38 | inactive
LOC392591 (retired record) | -0.871 | -0.931 | -0.907 | inactive
B3GNT7 | 0.578 | 2.24 | 2.09 | active
LRRC9 (leucine rich repeat containing 9) | 0.668 | 0.842 | 0.632 | inactive
EXOC6 (exocyst complex component 6) | 0.379 | 0.122 | -0.149 | inactive
GNGT1 (G protein subunit gamma transducin 1) | -1.01 | -0.997 | -0.298 | inactive
PMP2 (peripheral myelin protein 2) | -1.18 | -0.115 | -0.865 | inactive
LOC339760 (retired record) | -0.145 | -0.201 | -0.0935 | inactive
BAMBI (BMP and activin membrane bound inhibitor) | 0.29 | -1.58 | 0.138 | inactive
GPR22 (G protein-coupled receptor 22) | 2.41 | 2.02 | 2.83 | active
COL18A1 (collagen type XVIII alpha 1 chain) | 1.15 | 1.59 | 1.49 | inactive
NENF (neudesin neurotrophic factor) | -0.819 | 0.749 | -0.406 | inactive
ORC6 (origin recognition complex subunit 6) | -0.0491 | 0.0862 | -0.185 | inactive
PRPF3 (pre-mRNA processing factor 3) | -0.152 | -0.661 | -0.658 | inactive
GDF6 (growth differentiation factor 6) | -0.0578 | -0.0191 | 0.167 | inactive
RESF1 (retroelement silencing factor 1) | -1.34 | -2.25 | 0.0788 | inactive
